# Source: the supplement of paper PMC3334620
# The full ranking holds about 33,000 sequences; the median of “E-score (-0.5 to 0.5)” is about -8e-05, and the highest 2% start at about 0.23. This is one part of the list.
# Target: T1, Nrg2 (UniProt P38082)
# T1 sequence: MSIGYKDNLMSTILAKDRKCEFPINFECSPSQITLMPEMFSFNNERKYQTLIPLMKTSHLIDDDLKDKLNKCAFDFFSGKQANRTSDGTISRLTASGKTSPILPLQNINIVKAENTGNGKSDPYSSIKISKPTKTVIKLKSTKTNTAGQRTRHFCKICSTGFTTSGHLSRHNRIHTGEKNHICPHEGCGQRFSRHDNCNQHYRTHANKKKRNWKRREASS
# Assay: PBM E-score (8-mer binding enrichment) (E-score (-0.5 to 0.5)); higher = stronger / more preferred TF binding
# Conditions: protein concentration: 100 nM; construct: GST-full length
# Outline: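 Each ungapped eight-base word and its reverse complement, pooled, received an E-score from the Universal PBM Analysis Suite. Underlying scans, normalised with masliner, recorded fluorescent anti-GST bound to GST-tagged yeast transcription factors. These were applied at about 100-200 nM to universal all-10-mer Agilent arrays double-stranded by primer extension.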
row,Sequence,PBM E-score
1,CTGGAATA,0.193
2,ACTGAGTA,0.0363
3,GATATATC,0.0168
4,AAGACCAG,0.038
5,AACTACGC,0.0487
6,GAGCGCCA,-0.0395
7,CGTTTAGA,-0.0654
8,CACCGCAG,0.0838
9,ACTCCATA,-0.034
10,ATAGCCGC,-0.118
11,CGTCGACC,0.069
12,ACGGCGCG,0.214
13,CACGTTGG,-0.135
14,GTAGCAAC,0.105
15,AACAGGCA,-0.0487
16,CTTACACA,-0.0537
17,GTCACCCA,-0.136
18,AAGTGACC,-0.0854
19,ATGTTGGC,0.137
20,CGAAGGCA,-0.237
21,CGCGTCAC,-0.0169
22,CTCTTGGC,-0.189

# Taken from above:
# In PBM E-score, ATAGCCGC reads -0.118
# In PBM E-score, CACCGCAG reads 0.0838

# Further entries

row,Sequence,PBM E-score
1,CCTTTGAC,-0.14
2,GAAGCTGC,0.0537
3,CCAACTTA,0.101
4,GCCATTGA,0.13
5,ATTTCAGG,0.189
6,AAGACTAA,0.0215
7,GTTTAAAA,-0.0216
8,AATGTGAG,-0.0032
9,TGATGGAA,-0.0232
10,ATGTCACA,0.14
11,AGCAGCCG,0.0537
12,AGAATGCG,0.0659
13,ATCTCGCA,0.0354
14,TCAGCCAA,0.00064
15,ATTAAACG,0.129
16,CGACTGCC,-0.187
17,GACCTTCA,-0.0984
18,ACAGCTCG,-0.0529
19,ACAGGCGA,-0.0225
20,CTAGTAAA,0.122
21,CTGGCTTC,-0.201
22,ACGAAAAC,0.139

row,Sequence,PBM E-score
1,CTATCGTC,-0.115
2,CAAAACTG,0.116
3,ATCCCAAC,0.034
4,AAGCGGCT,0.0578
5,AAAGTCGT,-0.00649
6,ACATGCCG,0.0126
7,TATGGGGA,0.283
8,AAGGACGT,-0.135
9,ATCATAGA,0.238
10,ATCGGTAC,0.00733
11,TAGCGCTA,-0.0709
12,AATCGAGC,0.134
13,ACACCAAG,-0.0382
14,CTGACGGA,-0.131
15,CCAAGGGA,0.178
16,ACCGACGC,-0.262
17,CCGCGTAC,-0.0606
18,AACTTCTG,-0.0749
19,CCTTCACA,0.00895
20,CACGGCGA,0.0616
21,TCCTGGAA,-0.107
22,GATGTATA,0.124

row,Sequence,PBM E-score
1,ACTACTCC,0.00907
2,CCCACACC,0.115
3,GGTGTTCA,-0.176
4,AGGTGACC,-0.0318
5,CGAGCTGA,0.243
6,AGCAGCAT,-0.146
7,ACTTTTGC,-0.0259
8,ACCTGTTA,-0.199
9,CTCACCGA,-0.00873
10,GTACCTAC,-0.00923
11,AGACTAGC,-0.208
12,CTAGCGTA,-0.312
13,AAGTTGCT,-0.0399
14,CGCACTGA,-0.0198
15,ACAGGACA,0.153
16,GCTAAGGA,-0.225
17,ACCCGCCG,0.201
18,CGACAGCG,-0.169
19,TACGAATA,0.134
20,AGGCATTG,-0.113
21,ACACCCAA,0.024
22,AGTATCGA,0.174

row,Sequence,PBM E-score
1,GGACACTA,0.00752
2,CGAGTTAG,0.0595
3,GACAGGGA,0.252
4,AAAGCGTT,-0.116
5,CCCGTAGG,-0.203
6,CTACACAA,0.124
7,GGCACCCA,-0.163
8,CCTCCATA,-0.224
9,ATAGCCGG,-0.145
10,CCTAACTA,0.0797
11,CGCTCCCA,-0.177
12,ACATTCTG,-0.0901
13,CAAGAGTC,-0.198
14,CCCAGATC,-0.253
15,GTTTGTAA,-0.0294
16,CAGACAAA,0.0463
17,CACTGGGG,-0.168
18,ATGGAAAC,-0.0525
19,GCATAACC,-0.0951
20,ATACCCGG,-0.154
21,CCTGCAGA,0.143

# Rewritten as tab-separated lines: part of the list above.
row	Sequence	PBM E-score
7	GGCACCCA	-0.163
8	CCTCCATA	-0.224
9	ATAGCCGG	-0.145
10	CCTAACTA	0.0797
